Experimental data: patent US11647752B2 (priority 2020, dated 2023)

System: bacteria in tobacco rhizosphere soil

[Na+].[SH-] [NaHS]
Increase of relative abundance of bacteroidetes: 45.43% | Increase of relative abundance of gemmatimonadetes: 6.57%-96.10 | Increase of relative abundance of verrucomicrobia: 223.77% | Increase range of relative abundance of firmicutes versus the other treatments: 220.69-558.21%
